# Results from doi:10.1101/2024.09.10.612170.
# These are yes or no findings as the source states them, for the method shown. Binding seen in cells or lysates may run through a third protein. Some binding calls cover weakened binding; strength is not graded here. Tags and fused reporters may be left off the sequences shown.
# T1: FLAG-tagged EB1 (Drosophila) (UniProt Q9XZ57)
# T1 sequence: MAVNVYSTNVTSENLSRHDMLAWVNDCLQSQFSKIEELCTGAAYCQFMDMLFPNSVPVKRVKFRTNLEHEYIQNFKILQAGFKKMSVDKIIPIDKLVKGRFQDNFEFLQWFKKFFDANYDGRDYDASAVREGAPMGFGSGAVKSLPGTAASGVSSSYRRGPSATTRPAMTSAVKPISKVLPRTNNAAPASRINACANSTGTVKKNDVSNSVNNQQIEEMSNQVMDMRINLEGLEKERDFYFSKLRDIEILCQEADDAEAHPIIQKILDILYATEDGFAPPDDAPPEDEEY
# B1: KLP68D:YFP, full length (protein, UniProt P46867 1-784)
# chain: MSAKSRRPGTGSSQTPNECVQVVVRCRPMSNRERSERSPEVVNVYPNRGVVELQNVVDGNKEQRKVFTYDAAYDASATQTTLYHEVVFPLVSSVLEGFNGCIFAYGQTGTGKTFTMEGVRGNDELMGIIPRTFEQIWLHINRTENFQFLVDVSYLEIYMEELRDLLKPNSKHLEVRERGSGVYVPNLHAINCKSVEDMIKVMQVGNKNRTVGFTNMNEHSSRSHAIFMIKIEMCDTETNTIKVGKLNLIDLAGSERQSKTGASAERLKEASKINLALSSLGNVISALAESSPHVPYRDSKLTRLLQDSLGGNSKTIMIANIGPSNYNYNETLTTLRYASRAKSIQNQPIKNEDPQDAKLKEYQEEIERLKRLIGPQQQQRSEKQVTAKKQRVKKPKKETVTKEMSDSLQVSTIEQPVEDDSDPEGAESESDKENEAEVAKSNEELERERVENSKLAAKLAELEGQLVRGGKNLLDTYSERQIELEKKLVEIAERKKREIEIQQQLELQEETTLEIRERNVSLEQEVELKKRKLSKCYAKYLALQQELNDCKSDHNQDLRELEMAQNELVKELKRQLLIIDNFVPIEVKQRLYTQAKYDEEQEEWKFSSMSLPTPPGGDGKFSSKRPVSHPQRRRPTSEYALQEAKSNSPSSLRFKSENIVNYELEMPCRTTQEYRTPKVSASLQAVLAQAMQTGGDDIDIVDSHTNSLRSRLENIINANANGGAGPGAGVAVGSSIPNVRNIKSSRGLPSAASNLDSNRRPPTGRLPAKKPASAYPKARGLVNK
# Target: T1, FLAG-tagged EB1 (Drosophila)
# Test: co-IP
binder,measurement,value
B1,binding,binds
